# Measurements published in the supplement of paper PMC11732987, “Enantioselective OTUD7B fragment discovery through chemoproteomics screening and high-throughput optimisation” (Communications Chemistry, 2025).
# Some of the results follow. The data scatter; read single values as rough.
# Test system: T1, SLK C358
# T1 sequence (whole entry): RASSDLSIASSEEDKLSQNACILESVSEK
# Assay: log2 mean competition ratio of IA-DTB cysteine labelling (DMSO/compound) (log2 ratio); higher = stronger cysteine engagement by compound
# Conditions: 50 µM; treatment time: 4 h; cell line lysate: HEK293T
# Experimental: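 IA-DTB competitive cysteine chemoproteomics in HEK293T RIPA lysate. Lysates were treated with compound 29 or 30 at 50 or 200 µM for 4 h, then IA-DTB (500 µM, 1 h), trypsin-digested, NeutrAvidin-enriched and analysed by diaPASEF. Competition ratio = intensity DMSO / intensity compound (n=4 treated, n=64 DMSO); binding: mean log2 CR ≥ 1 and p ≤ 0.05 plus QC filters. Target is the cysteine site.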
row,SMILES,log2 mean competition ratio
1,O=C(CCl)N[C@H]1CCCc2ccccc21,-0.24
2,O=C(CCl)N[C@@H]1CCCc2ccccc21,-0.315

# Same assay, conditions: 200 µM; treatment time: 4 h; cell line lysate: HEK293T
row,SMILES,log2 mean competition ratio
1,O=C(CCl)N[C@H]1CCCc2ccccc21,-0.189
2,O=C(CCl)N[C@@H]1CCCc2ccccc21,-0.0833
